Here are results for six molecules from publication PMC9160049, “Cryo-EM structures of Gid12-bound GID E3 reveal steric blockade as a mechanism inhibiting substrate ubiquitylation” (Nature Communications, 2022).

Sequences and labels used below:
T1: 3×HA-Gid4 (endogenously N-terminally HA-tagged Gid4) (S. cerevisiae (endogenous in BY4741)) (UniProt P38263)
T1 sequence: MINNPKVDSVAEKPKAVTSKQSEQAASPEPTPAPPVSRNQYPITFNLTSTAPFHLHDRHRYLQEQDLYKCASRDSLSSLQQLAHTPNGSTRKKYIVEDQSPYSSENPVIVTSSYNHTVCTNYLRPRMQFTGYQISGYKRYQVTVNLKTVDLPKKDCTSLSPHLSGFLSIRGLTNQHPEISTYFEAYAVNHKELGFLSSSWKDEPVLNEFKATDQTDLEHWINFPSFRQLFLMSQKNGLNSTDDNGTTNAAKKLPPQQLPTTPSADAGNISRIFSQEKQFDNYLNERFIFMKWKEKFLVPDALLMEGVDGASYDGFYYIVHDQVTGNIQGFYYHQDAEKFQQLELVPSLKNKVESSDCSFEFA

T2: Gid12-3×FLAG (endogenously C-terminally triple FLAG-tagged Ipf1) (S. cerevisiae (endogenous in BY4741)) (UniProt Q12027)
T2 sequence: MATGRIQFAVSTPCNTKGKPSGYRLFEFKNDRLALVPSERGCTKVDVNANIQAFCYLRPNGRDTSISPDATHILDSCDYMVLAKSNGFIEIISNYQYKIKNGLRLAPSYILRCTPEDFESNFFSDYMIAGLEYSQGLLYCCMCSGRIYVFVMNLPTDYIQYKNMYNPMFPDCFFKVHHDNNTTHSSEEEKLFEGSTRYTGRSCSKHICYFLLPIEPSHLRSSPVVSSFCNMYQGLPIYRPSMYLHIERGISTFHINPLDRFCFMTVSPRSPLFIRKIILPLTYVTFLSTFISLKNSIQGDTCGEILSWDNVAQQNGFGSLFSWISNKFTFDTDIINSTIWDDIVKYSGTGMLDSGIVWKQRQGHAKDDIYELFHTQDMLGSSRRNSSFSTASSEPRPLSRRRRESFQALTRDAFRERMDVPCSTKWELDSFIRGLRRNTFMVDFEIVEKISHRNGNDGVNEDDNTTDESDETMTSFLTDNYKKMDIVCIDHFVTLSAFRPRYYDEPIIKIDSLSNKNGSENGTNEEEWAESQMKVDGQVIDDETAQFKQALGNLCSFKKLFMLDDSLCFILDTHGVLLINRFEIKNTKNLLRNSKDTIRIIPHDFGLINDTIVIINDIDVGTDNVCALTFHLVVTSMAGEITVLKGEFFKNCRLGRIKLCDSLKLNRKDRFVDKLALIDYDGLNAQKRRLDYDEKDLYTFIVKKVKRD

B1: Gid2 (protein, UniProt Q12508 1-421)
chain: MSELLDSFETEFAKFYTDSNLEETNLQKCLDHTHEFKSQLKKLKAHLNKHIQESKPEVYNKLSDKEKQKFKRKRELIIEKLSKSQRQWDHSVKKQIKYVSQQSNRFNKSTLNKLKEFDIDSVYVNKLPKETMENVNEAIGYHILRYSIDNMPLGNKNEAFQYLKDVYGITNKESTEFIEMGQIVHDLKKGDTESCLKWCSNEMESLSSNHTALSSLKFDLYTLSAMQIVKHGNPVELYYQITQNAPLDCFRHREKELMQNVVPLLTKSLIGQPIEDIDSKVNKELKECTSLFIKEYCAAKHIFFDSPLFLIVLSGLISFQFFIKYKTIRELAHVDWTTKDELPFDVKLPDFLTHFHPIFICPVLKEETTTENPPYSLACHHIISKKALDRLSKNGTITFKCPYCPVNTSMSSTKKVRFVML
B2: Gid7 (protein, UniProt P25569 1-745)
chain: MSHTNKIAYVLNNDTEETASPSSVGCFDKKQLTKLLIHTLKELGYDSAANQLLLESGGYQNESNHIQTFFKLIKTGQFHLINWQIVCSLPLAHSSPLRSEWLQRLLIPTPTPATTSLFDHMLLQLQYLQQLMSSVNSSTCSDAEIATLRNYVEIMILVNRQIFLEFFHPVTNSASHKGPHTALPVLYLRKILKNFIEIWDSLLVSNDQFLNEENIFNPETTLRELSTYLTNPKLTAQLNLERDHLIDAISKYIDPNELVPKGRLLHLLKQAIKYQQSQDIFNIIDPDDDASFSSPPHRINLLQDNFSHDLTVTFQEWKTIQDTTDEIWFLTFSPNGKYLASATSESSRGYFITVYDVEQDFKIYKTCVSLSQSVLYLMFSPDSRYLVACPFSEDVTIYDMNATSLPDASATDSFLLYPSTRLSPMDSFKLDTTTYPDDTESSASSSSRPANANSNQSRVWCCDAFHTAERAGWMVVGSPDREAIVHSLTTKESLFSLKGRTCIALGHDENISGRKSIDPAKVLYKPTSSNGNWQYVEDDETFPRVHDVKISYDDKYVLLMTHQGVIDVYDFSGFPSKEELSKQTVDPKNFLIPRIARLDVGKNMTCISLPLNTTHQGFHRQQISESQHLVLVSLQDNELQMWDYKENILIQKYFGQKQQHFIIRSCFAYGNKLVMSGSEDGKIYIWDRIRGNLVSVLSGHSTVMSNSTKPMGKNCNVVASNPADKEMFASGGDDGKIKIWKISRN
B3: Gid1 (protein, UniProt P53076 1-958)
chain: MSEYMDDVDREFINCLFPSYLLQQPVAYDLWILYLQHRKLFHKLKNTNLINADENPTGVGMGRTKLTALTRKEIWSKLMNLGVLGTISFEAVNDDYLIQVYKYFYPDVNDFTLRFGVKDSNKNSVRVMKASSDMRKNAQELLEPVLSEREMALNSNTSLENDRNDDDDDDDDDDDDDDDDDDDDDESDLESLEGEVDTDTDDNNEGDGSDNHEEGGEEGSRGADADVSSAQQRAERVADPWIYQRSRSAINIETESRNLWDTSDKNSGLQYYPPDQSPSSSFSSPRVSSGNDKNDNEATNVLSNSGSKKKNSMIPDIYKILGYFLPSRWQAQPNNSLQLSQDGITHLQPNPDYHSYMTYERSSASSASTRNRLRTSFENSGKVDFAVTWANKSLPDNKLTIFYYEIKVLSVTSTESAENSNIVIGYKLVENELMEATTKKSVSRSSVAGSSSSLGGSNNMSSNRVPSTSFTMEGTQRRDYIYEGGVSAMSLNVDGSINKCQKYGFDLNVFGYCGFDGLITNSTEQSKEYAKPFGRDDVIGCGINFIDGSIFFTKNGIHLGNAFTDLNDLEFVPYVALRPGNSIKTNFGLNEDFVFDIIGYQDKWKSLAYEHICRGRQMDVSIEEFDSDESEEDETENGPEENKSTNVNEDLMDIDQEDGAAGNKDTKKLNDEKDNNLKFLLGEDNRFIDGKLVRPDVNNINNLSVDDGSLPNTLNVMINDYLIHEGLVDVAKGFLKDLQKDAVNVNGQHSESKDVIRHNERQIMKEERMVKIRQELRYLINKGQISKCINYIDNEIPDLLKNNLELVFELKLANYLVMIKKSSSKDDDEIENLILKGQELSNEFIYDTKIPQSLRDRFSGQLSNVSALLAYSNPLVEAPKEISGYLSDEYLQERLFQVSNNTILTFLHKDSECALENVISNTRAMLSTLLEYNAFGSTNSSDPRYYKAINFDEDVLNL
B4: Gid4 (protein, UniProt P38263 1-362)
chain: T1 sequence
B5: Gid9 (protein, UniProt P40492 1-516)
chain: MAEKSIFNEPDVDFHLKLNQQLFHIPYELLSKRIKHTQAVINKETKSLHEHTAALNQIFEHNDVEHDELALAKITEMIRKVDHIERFLNTQIKSYCQILNRIKKRLEFFHELKDIKSQNSGTSHNGNNEGTRTKLIQWYQSYTNILIGDYLTRNNPIKYNSETKDHWNSGVVFLKQSQLDDLIDYDVLLEANRISTSLLHERNLLPLISWINENKKTLTKKSSILEFQARLQEYIELLKVDNYTDAIVCFQRFLLPFVKSNFTDLKLASGLLIFIKYCNDQKPTSSTSSGFDTEEIKSQSLPMKKDRIFQHFFHKSLPRITSKPAVNTTDYDKSSLINLQSGDFERYLNLLDDQRWSVLNDLFLSDFYSMYGISQNDPLLIYLSLGISSLKTRDCLHPSDDENGNQETETATTAEKEVEDLQLFTLHSLKRKNCPVCSETFKPITQALPFAHHIQSQLFENPILLPNGNVYDSKKLKKLAKTLKKQNLISLNPGQIMDPVDMKIFCESDSIKMYPT
B6: Gid5 (protein, UniProt P40547 1-921)
chain: MTVAYSLENLKKISNSLVGDQLAKVDYFLAPKCQIFQCLLSIEQSDGVELKNAKLDLLYTLLHLEPQQRDIVGTYYFDIVSAIYKSMSLASSFTKNNSSTNYKYIKLLNLCAGVYPNCGFPDLQYLQNGFIQLVNHKFLRSKCKIDEVVTIIELLKLFLLVDEKNCSDFNKSKFMEEEREVTETSHYQDFKMAESLEHIIVKISSKYLDQISLKYIVRLKVSRPASPSSVKNDPFDNKGVDCTRAIPKKINISNMYDSSLLSLALLLYLRYHYMIPGDRKLRNDATFKMFVLGLLKSNDVNIRCVALKFLLQPYFTEDKKWEDTRTLEKILPYLVKSFNYDPLPWWFDPFDMLDSLIVLYNEITPMNNPVLTTLAHTNVIFCILSRFAQCLSLPQHNEATLKTTTKFIKICASFAASDEKYRLLLLNDTLLLNHLEYGLESHITLIQDFISLKDEIKETTTESHSMCLPPIYDHDFVAAWLLLLKSFSRSVSALRTTLKRNKIAQLLLQILSKTYTLTKECYFAGQDFMKPEIMIMGITLGSICNFVVEFSNLQSFMLRNGIIDIIEKMLTDPLFNSKKAWDDNEDERRIALQGIPVHEVKANSLWVLRHLMYNCQNEEKFQLLAKIPMNLILDFINDPCWAVQAQCFQLLRNLTCNSRKIVNILLEKFKDVEYKIDPQTGNKISIGSTYLFEFLAKKMRLLNPLDTQQKKAMEGILYIIVNLAAVNENKKQLVIEQDEILNIMSEILVETTTDSSSNGNDSNLKLACLWVLNNLLWNSSVSHYTQYAIENGLEPGHSPSDSENPQSTVTIGYNESVAGGYSRGKYYDEPDGDDSSSNANDDEDDDNDEGDDEGDEFVRTPAAKGSTSNVQVTRATVERCRKLVEVGLYDLVRKNITDESLSVREKARTLLYHMDLLLKVK

No constants are given. Whether binding was seen depends on the method and setting. Binding seen in cells or lysates may run through a third protein. Here binding means that the protein was enriched with, or labelled near, the bait; the list need not be complete. Sequences can lack the tags named with a protein.

The first experiment addresses T1, 3×HA-Gid4 (endogenously N-terminally HA-tagged Gid4) (S. cerevisiae (endogenous in BY4741)). Nature of the experiment: affinity purification with mass spectrometry; 3×HA-Gid4 on anti-HA resin, eluted with HA peptide, from BY4741 GID12-9×cMYC lysate; glycolytic conditions, ethanol starvation for 16 h or carbon recovery; iBAQ quantification.
Turning to B1, the binding entry is “binds”.

The target in the next experiment is T2, Gid12-3×FLAG (endogenously C-terminally triple FLAG-tagged Ipf1) (S. cerevisiae (endogenous in BY4741)). The experiment can be described thus: affinity purification with mass spectrometry; Gid12-3×FLAG on anti-FLAG M2 resin from BY4741 lysate, glycolytic conditions, against an untagged control strain; 200 mM NaCl, 50 mM Tris pH 7.5, 4 °C; label-free quantitative MS.
With B2, the binding result is “binds”. For B3, the binding result is listed as “binds”.

In the case of B4, the binding result is given as “binds”.

As for B1, the binding result was “binds”.

Regarding B5, the binding entry is “binds”. With B6, the binding result was “binds”.
